PubChem BioAssay AID1259254, NCATS | 2017
Here is an unselected part of about 59,000 deposited reagents. Over the whole deposit, about 1,550 (2.6%) were called active. 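G2 share is only a proxy for re-replication; each gene was hit by three separate siRNAs, and active genes were retested.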 Raw values vary from plate to plate and are shown uncorrected. The numbers tell different reagents against one gene apart. No sequences are given here. Not stated in the record: the amount of reagent.

- Purpose: 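Gene knock-downs that lead to re-replication, shown by excess G2 DNA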 (primary screen)
- System: human HCT116 colorectal cancer cells
- Reagent: single siRNA against human genes
- Duration: 3 days
- Measured: 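Imaged Hoechst DNA stain sorts each cell into a cycle phase by DNA amount; per plate, G2 fraction set to 0% for non-targeting and 100% for GMNN siRNA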
- Scale: G2 robust z-score and G2 cells, % of GMNN control: higher = more G2 cells, more excess DNA replication; raw share of cells in G2: higher = larger share of cells with G2 DNA content
- Hit rule: 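An siRNA counts as active if its G2 robust z-score lies at least 5 MADs above the screen median; here such calls match roughly 38% of GMNN control or more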

no.	target gene	reagent no.	G2 robust z-score	G2 cells, % of GMNN control	raw share of cells in G2 (%)	Call
1	TBC1D27P	1	-0.978	-3.92	2.52	inactive
2	TBC1D27P	2	0.879	9.15	6.06	inactive
3	TBC1D27P	3	-0.157	1.86	2.36	inactive
4	CALHM1	1	-0.25	1.21	4.02	inactive
5	CALHM1	2	0.563	6.93	5.5	inactive
6	CALHM1	3	5.27	40.1	16	active
7	CHMP1A	1	0.704	7.92	8.2	inactive
8	CHMP1A	2	-0.829	-2.86	3.59	inactive
9	CHMP1A	3	-0.619	-1.39	2.73	inactive
10	CRYBA1	1	0.712	7.97	9.04	inactive
11	CRYBA1	2	-0.105	2.23	4.9	inactive
12	CRYBA1	3	-0.884	-3.25	2.25	inactive
13	PLSCR4	1	-1.13	-4.99	4.24	inactive
14	PLSCR4	2	0.446	6.1	6.63	inactive
15	PLSCR4	3	-0.992	-4.01	2.66	inactive
16	PDGFRB	1	1.2	11.4	9.37	inactive
17	PDGFRB	2	-1.45	-7.21	2.98	inactive
18	PDGFRB	3	-0.388	0.238	4.11	inactive
19	PLCXD3	1	0.0759	3.5	5.19	inactive
20	PLCXD3	2	-0.327	0.667	3.55	inactive
21	PLCXD3	3	-0.408	0.0965	4.23	inactive
22	LINC02875	1	0.208	4.43	6.53	inactive
23	LINC02875	2	-0.191	1.62	4.33	inactive
24	LINC02875	3	-0.58	-1.11	2.92	inactive
25	ZNF626	1	0.156	4.07	6.41	inactive
26	ZNF626	2	-1.32	-6.33	2.94	inactive
27	ZNF626	3	2.98	23.9	13.4	inactive
28	ANGPTL5	1	-0.352	0.492	4.88	inactive
29	ANGPTL5	2	-1.18	-5.37	2.45	inactive
30	ANGPTL5	3	0.302	5.09	8.39	inactive
31	ZNF75D	1	0.598	7.18	6.84	inactive
32	ZNF75D	2	1.28	12	8.73	inactive
33	ZNF75D	3	0.26	4.8	7.62	inactive

Next part (7 carried over from the part before).
no.	target gene	reagent no.	G2 robust z-score	G2 cells, % of GMNN control	raw share of cells in G2 (%)	Call
27	ZNF626	3	2.98	23.9	13.4	inactive
28	ANGPTL5	1	-0.352	0.492	4.88	inactive
29	ANGPTL5	2	-1.18	-5.37	2.45	inactive
30	ANGPTL5	3	0.302	5.09	8.39	inactive
31	ZNF75D	1	0.598	7.18	6.84	inactive
32	ZNF75D	2	1.28	12	8.73	inactive
33	ZNF75D	3	0.26	4.8	7.62	inactive
34	MFSD2B	1	0.86	9.02	6.86	inactive
35	MFSD2B	2	-0.333	0.627	3.68	inactive
36	MFSD2B	3	0.182	4.25	6.45	inactive
37	TMBIM1	1	1.98	16.9	11.9	inactive
38	TMBIM1	2	-0.836	-2.91	3.3	inactive
39	TMBIM1	3	4.77	36.5	12.3	inactive
40	FGFR2	1	-1.11	-4.85	4	inactive
41	FGFR2	2	-1.3	-6.19	3.32	inactive
42	FGFR2	3	-0.691	-1.9	3.36	inactive
43	IPCEF1	1	0.46	6.2	6.25	inactive
44	IPCEF1	2	-1.27	-5.95	2.04	inactive
45	IPCEF1	3	-0.639	-1.53	5.47	inactive
46	FAT2	1	-0.604	-1.28	4.78	inactive
47	FAT2	2	-0.532	-0.777	3.38	inactive
48	FAT2	3	-0.993	-4.02	3.78	inactive
49	TIGD6	1	0.732	8.12	7.79	inactive
50	TIGD6	2	-0.772	-2.47	3.3	inactive
51	TIGD6	3	0.0674	3.44	6.86	inactive
52	TIGD6	4	-0.852	-3.03	2.39	inactive
53	TIGD6	5	0.11	3.74	4.19	inactive
54	TIGD6	6	-0.932	-3.59	2.24	inactive
55	SALL4	1	3.79	29.6	19.4	inactive
56	SALL4	2	-1.26	-5.91	1.87	inactive
57	SALL4	3	0.839	8.87	7.62	inactive
58	KLF7	1	-0.101	2.26	4.28	inactive
59	KLF7	2	-0.164	1.81	6.79	inactive
60	KLF7	3	-0.499	-0.543	3.11	inactive
61	NLRP14	1	1.81	15.7	9.37	inactive
62	NLRP14	2	-0.51	-0.622	2.99	inactive
63	NLRP14	3	0.671	7.69	7.28	inactive
64	FRRS1L	1	2.5	20.5	12.1	inactive
65	FRRS1L	2	-0.443	-0.147	3.88	inactive
66	FRRS1L	3	2.08	17.6	9.45	inactive
67	SRFBP1	1	-0.666	-1.72	2.99	inactive
68	SRFBP1	2	1.05	10.3	6.42	inactive
69	SRFBP1	3	0.0134	3.06	3.73	inactive
